# Some of the results follow.
# Key:
# Assay in all cases: glycan array binding signal (z-score within array); higher = stronger binding
# Conditions in all cases: glycan notation: IUPAC condensed, linker removed
# Gal(a1-2)Gal = test system: Gal(a1-2)Gal
# Method in brief: (§1)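 Negative Z-scores can be read as non-binding. The Z-score is calculated within each array and then averaged across arrays of one protein sequence at different concentrations or buffers and across linkers. Arrays, 3228 in all, were curated from the Consortium for Functional Glycomics database and kept only where the protein sequence was available.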
# [1] = test system: Gal(a1-3)Gal(b1-3)GlcNAc(b1-2)Man(a1-3)[Gal(a1-3)Gal(b1-3)GlcNAc(b1-2)Man(a1-6)]Man(b1-4)GlcNAc(b1-4)GlcNAc
# Method in brief: as §1
# [2] = test system: Gal(a1-3)Gal(b1-3)GlcNAc(b1-3)GalNAc
# Method in brief: as §1
# [3] = test system: Gal(a1-3)Gal(b1-3)GlcNAc(b1-6)GalNAc
# Method in brief: as §1
# Gal(a1-3)Gal(b1-3)GlcNAc = test system: Gal(a1-3)Gal(b1-3)GlcNAc
# Method in brief: as §1
# [4] = test system: Gal(a1-3)Gal(b1-3)[Fuc(a1-4)]GlcNAc(b1-2)Man(a1-3)[Gal(a1-3)Gal(b1-3)[Fuc(a1-4)]GlcNAc(b1-2)Man(a1-6)]Man(b1-4)GlcNAc(b1-4)GlcNAc
# Method in brief: as §1
# [5] = test system: Gal(a1-3)Gal(b1-4)GlcNAc(b1-3)GalNAc
# Method in brief: as §1
# [6] = test system: Gal(a1-3)Gal(b1-4)GlcNAc(b1-6)GalNAc
# Method in brief: as §1
# Gal(a1-3)Gal(b1-4)GlcNAc = test system: Gal(a1-3)Gal(b1-4)GlcNAc
# Method in brief: as §1
# Gal(a1-3)Gal(b1-4)Glc = test system: Gal(a1-3)Gal(b1-4)Glc
# Method in brief: as §1
# [7] = test system: Gal(a1-3)Gal(b1-4)[Fuc(a1-3)]GlcNAc(b1-2)Man(a1-3)[Gal(a1-3)Gal(b1-4)[Fuc(a1-3)]GlcNAc(b1-2)Man(a1-6)]Man(b1-4)GlcNAc(b1-4)GlcNAc
# Method in brief: as §1
# [8] = test system: Gal(a1-3)Gal(b1-4)[Fuc(a1-3)]GlcNAc
# Method in brief: as §1
# Gal(a1-3)GalNAc = test system: Gal(a1-3)GalNAc
# Method in brief: as §1
# Gal(a1-3)Gal = test system: Gal(a1-3)Gal
# Method in brief: as §1
# [9] = test system: Gal(a1-3)[Gal(a1-4)]Gal(b1-4)GlcNAc
# Method in brief: as §1
# [10] = test system: Gal(a1-4)Gal(b1-3)GlcNAc(b1-2)Man(a1-3)[Gal(a1-4)Gal(b1-3)GlcNAc(b1-2)Man(a1-6)]Man(b1-4)GlcNAc(b1-4)GlcNAc
# Method in brief: as §1
# [11] = test system: Gal(a1-4)Gal(b1-4)GlcNAc(b1-2)Man(a1-3)[Gal(a1-4)Gal(b1-4)GlcNAc(b1-2)Man(a1-6)]Man(b1-4)GlcNAc(b1-4)GlcNAc
# Method in brief: as §1
# [12] = test system: Gal(a1-4)Gal(b1-4)GlcNAc(b1-3)Gal(b1-4)Glc
# Method in brief: as §1
# Gal(a1-4)Gal(b1-4)GlcNAc = test system: Gal(a1-4)Gal(b1-4)GlcNAc
# Method in brief: as §1
# Gal(a1-4)Gal(b1-4)Glc = test system: Gal(a1-4)Gal(b1-4)Glc
# Method in brief: as §1
# Gal(a1-4)GlcNAc = test system: Gal(a1-4)GlcNAc
# Method in brief: as §1
# Gal(a1-6)Glc = test system: Gal(a1-6)Glc
# Method in brief: as §1
# Gal(b1-2)Gal = test system: Gal(b1-2)Gal
# Method in brief: as §1
# [13] = test system: Gal(b1-3)Gal(b1-4)GlcNAc(b1-2)Man(a1-3)[Gal(b1-3)Gal(b1-4)GlcNAc(b1-2)Man(a1-6)]Man(b1-4)GlcNAc(b1-4)GlcNAc
# Method in brief: as §1
# Gal(b1-3)Gal(b1-4)GlcNAc = test system: Gal(b1-3)Gal(b1-4)GlcNAc
# Method in brief: as §1
# [14] = test system: Gal(b1-3)GalNAc(a1-3)[Fuc(a1-2)]Gal(b1-4)GlcNAc
# Method in brief: as §1
# [15] = test system: Gal(b1-3)GalNAc(a1-3)[Fuc(a1-2)]Gal(b1-4)Glc
# Method in brief: as §1
# [16] = test system: Gal(b1-3)GalNAc(b1-3)Gal(a1-4)Gal(b1-4)Glc
# Method in brief: as §1
# [17] = test system: Gal(b1-3)GalNAc(b1-4)Gal(b1-4)Glc
# Method in brief: as §1
# [18] = test system: Gal(b1-3)GalNAc(b1-4)[Neu5Ac(a2-3)]Gal(b1-4)Glc
# Method in brief: as §1
# Gal(b1-3)GalNAc = test system: Gal(b1-3)GalNAc
# Method in brief: as §1
# Gal(b1-3)Gal = test system: Gal(b1-3)Gal
# Method in brief: as §1
# [19] = test system: Gal(b1-3)GlcNAc(a1-3)Gal(b1-4)GlcNAc
# Method in brief: as §1
# [20] = test system: Gal(b1-3)GlcNAc(a1-6)Gal(b1-4)GlcNAc
# Method in brief: as §1
# [21] = test system: Gal(b1-3)GlcNAc(b1-2)Man(a1-3)[Gal(b1-3)GlcNAc(b1-2)Man(a1-6)]Man(b1-4)GlcNAc(b1-4)GlcNAc
# Method in brief: as §1
# [22] = test system: Gal(b1-3)GlcNAc(b1-2)Man(a1-3)[Gal(b1-3)GlcNAc(b1-2)Man(a1-6)]Man(b1-4)GlcNAc(b1-4)[Fuc(a1-6)]GlcNAc
# Method in brief: as §1
# [23] = test system: Gal(b1-3)GlcNAc(b1-2)Man(a1-3)[GlcNAc(b1-4)][Gal(b1-3)GlcNAc(b1-2)Man(a1-6)]Man(b1-4)GlcNAc(b1-4)GlcNAc
# Method in brief: as §1
# [24] = test system: Gal(b1-3)GlcNAc(b1-2)[Gal(b1-3)GlcNAc(b1-6)]Man(a1-6)[Gal(b1-3)GlcNAc(b1-2)Man(a1-3)]Man(b1-4)GlcNAc(b1-4)GlcNAc
# Method in brief: as §1
# [25] = test system: Gal(b1-3)GlcNAc(b1-3)Gal(b1-3)GlcNAc
# Method in brief: as §1
# [26] = test system: Gal(b1-3)GlcNAc(b1-3)Gal(b1-4)GlcNAc(b1-6)[Gal(b1-3)GlcNAc(b1-3)]Gal(b1-4)Glc
# Method in brief: as §1
# [27] = test system: Gal(b1-3)GlcNAc(b1-3)Gal(b1-4)GlcNAc
# Method in brief: as §1
# [28] = test system: Gal(b1-3)GlcNAc(b1-3)Gal(b1-4)Glc
# Method in brief: as §1
# [29] = test system: Gal(b1-3)GlcNAc(b1-3)Gal(b1-4)[Fuc(a1-3)]GlcNAc(b1-6)[Gal(b1-3)GlcNAc(b1-3)]Gal(b1-4)Glc
# Method in brief: as §1
# [30] = test system: Gal(b1-3)GlcNAc(b1-3)GalNAc
# Method in brief: as §1
# [31] = test system: Gal(b1-3)GlcNAc(b1-6)Gal(b1-4)GlcNAc
# Method in brief: as §1
# [32] = test system: Gal(b1-3)GlcNAc(b1-6)GalNAc
# Method in brief: as §1
# Gal(b1-3)GlcNAc6S = test system: Gal(b1-3)GlcNAc6S
# Method in brief: as §1
# Gal(b1-3)GlcNAc = test system: Gal(b1-3)GlcNAc
# Method in brief: as §1
# [33] = test system: Gal(b1-3)[Fuc(a1-4)]GlcNAc(b1-2)Man(a1-3)[Gal(b1-3)[Fuc(a1-4)]GlcNAc(b1-2)Man(a1-6)]Man(b1-4)GlcNAc(b1-4)[Fuc(a1-6)]GlcNAc
# Method in brief: as §1
# [34] = test system: Gal(b1-3)[Fuc(a1-4)]GlcNAc(b1-3)Gal(b1-3)[Fuc(a1-4)]GlcNAc
# Method in brief: as §1
# [35] = test system: Gal(b1-3)[Fuc(a1-4)]GlcNAc(b1-3)Gal(b1-4)GlcNAc
# Method in brief: as §1
# [36] = test system: Gal(b1-3)[Fuc(a1-4)]GlcNAc(b1-3)Gal(b1-4)[Fuc(a1-3)]GlcNAc
# Method in brief: as §1
substance,measurement,setting,value
"Wza (Escherichia coli), P0A930",glycan array binding signal (z-score),Gal(a1-2)Gal,0.653
same,glycan array binding signal (z-score),[1],0.652
same,glycan array binding signal (z-score),[2],1.33
same,glycan array binding signal (z-score),[3],-0.619
same,glycan array binding signal (z-score),Gal(a1-3)Gal(b1-3)GlcNAc,-0.725
same,glycan array binding signal (z-score),[4],0.562
same,glycan array binding signal (z-score),[5],-0.853
same,glycan array binding signal (z-score),[6],3.84
same,glycan array binding signal (z-score),Gal(a1-3)Gal(b1-4)GlcNAc,-0.445
same,glycan array binding signal (z-score),Gal(a1-3)Gal(b1-4)Glc,0.4
same,glycan array binding signal (z-score),[7],-0.24
same,glycan array binding signal (z-score),[8],0.137
same,glycan array binding signal (z-score),Gal(a1-3)GalNAc,0.468
same,glycan array binding signal (z-score),Gal(a1-3)Gal,0.115
same,glycan array binding signal (z-score),[9],-0.948
same,glycan array binding signal (z-score),[10],-1.07
same,glycan array binding signal (z-score),[11],0.557
same,glycan array binding signal (z-score),[12],-0.087
same,glycan array binding signal (z-score),Gal(a1-4)Gal(b1-4)GlcNAc,-0.729
same,glycan array binding signal (z-score),Gal(a1-4)Gal(b1-4)Glc,0.25
same,glycan array binding signal (z-score),Gal(a1-4)GlcNAc,-1.48
same,glycan array binding signal (z-score),Gal(a1-6)Glc,3.12
same,glycan array binding signal (z-score),Gal(b1-2)Gal,-1.24
same,glycan array binding signal (z-score),[13],1.54
same,glycan array binding signal (z-score),Gal(b1-3)Gal(b1-4)GlcNAc,3.02
same,glycan array binding signal (z-score),[14],0.052
same,glycan array binding signal (z-score),[15],0.824
same,glycan array binding signal (z-score),[16],-0.128
same,glycan array binding signal (z-score),[17],-0.076
same,glycan array binding signal (z-score),[18],0.983
same,glycan array binding signal (z-score),Gal(b1-3)GalNAc,0.276
same,glycan array binding signal (z-score),Gal(b1-3)Gal,0.729
same,glycan array binding signal (z-score),[19],-0.292
same,glycan array binding signal (z-score),[20],-0.889
same,glycan array binding signal (z-score),[21],0.432
same,glycan array binding signal (z-score),[22],-0.217
same,glycan array binding signal (z-score),[23],0.593
same,glycan array binding signal (z-score),[24],1.4
same,glycan array binding signal (z-score),[25],-0.652
same,glycan array binding signal (z-score),[26],-1
same,glycan array binding signal (z-score),[27],0.348
same,glycan array binding signal (z-score),[28],-0.658
same,glycan array binding signal (z-score),[29],-0.476
same,glycan array binding signal (z-score),[30],0.041
same,glycan array binding signal (z-score),[31],-1.07
same,glycan array binding signal (z-score),[32],-0.947
same,glycan array binding signal (z-score),Gal(b1-3)GlcNAc6S,-0.27
same,glycan array binding signal (z-score),Gal(b1-3)GlcNAc,0.026
same,glycan array binding signal (z-score),[33],-0.493
same,glycan array binding signal (z-score),[34],0.438
same,glycan array binding signal (z-score),[35],1.14
same,glycan array binding signal (z-score),[36],1.93

# A second format for part of the listing above:
substance	measurement	setting	value
Wza (Escherichia coli), P0A930	glycan array binding signal (z-score)	[2]	1.33
same	glycan array binding signal (z-score)	[10]	-1.07
same	glycan array binding signal (z-score)	[35]	1.14
same	glycan array binding signal (z-score)	[36]	1.93
